For some assays here: For at least one compound, name, drawing or mass did not settle the structure. Some results were stated once for a whole list of compounds, not compound by compound.
Columns and labels:
[1] = Brain and plasma concentrations in rats; type: in vivo, rat; conditions: 10 mg/kg IP, male rats
Male WKY rats = experiment: Sleep-wake behavior, EEG power, body temperature and locomotor activity in WKY rats; type: in vivo, rat
Description: Male WKY rats (n=7, 289-388 g at the start of dosing) were housed in groups of 2-3 animals per cage with standard housing conditions. For implantation of the EEG electrodes and radio transmitter, the animals were anesthetized with isoflurane (2-5% in oxygen at 11/min) throughout the procedure. The scalp, neck and right flank were cleared of hair using clippers and cleaned using diluted Hibitane (chlorhexidine, 50% (v/v) in water). A non-steroidal anti-inflammatory agent was administered (carprofen 5 mg/kg, s.c.) and the animals placed on a homeothermic blanket (37° C.) with the head fixed in a stereotaxic frame. Incisions were made in the scalp and neck, as well as in the right flank. Blunt dissection of the abdominal muscle was then made to gain access to the peritoneal cavity. A radio transmitter (HD-S02, Data Sciences International) was implanted in the peritoneal cavity and secured to the muscle wall with non-absorbable sutures. The wires of the transmitter were passed using a 19G needle through the muscle wall and then sub-dermally to the scalp to act as Electroencephalogram (EEG)/Electromyograph (EMG) electrodes. The scalp was cleared of connective tissue and two craniotomies were made with a trepanning drill (fronto-parietal coordinates; Bregma+2 mm anterior, midline+1.0 mm lateral and Lambda 0 mm, +1.5 mm lateral). The positive EEG electrode was attached to the anterior craniotomy and the negative EEG electrode to the posterior craniotomy. Both electrodes were secured in place using a suitable adhesive agent (cyanoacrylate gel, RS components). A second set of electrodes were sutured into the nuchal muscle to act as EMG electrodes. All incisions were closed using absorbable suture.
All animals were allowed to recover in a warm environment and given 5 ml of saline subcutaneously (s.c.). Animals were kept singly in the cage until the next day, then pair housed for the duration of post-surgical recovery (minimum 7 days). During the recovery period, the rats received 5 days of standard post-operative care with no further experimental procedures until the pre-operative body weight was regained. The animals were maintained on a 12/12 hour light dark cycle (08:00 am lights on) after the surgery. Home cages and post-operative cages contained bedding and nesting material, along with environmental enrichment such as wooden chew-sticks and plastic tunnels.
On test days, ˜60 minutes after lights-on, animals were placed in recording boxes similar to their home-cages, except that environmental enrichment was restricted to a large bundle of nesting and bedding material, to avoid interference with the telemeter signals. Then, data acquisition was initiated for confirmation of signal quality. EEG and EMG data were acquired using intraperitoneal HD-S02 transmitters (DSI, New Brighton, MN) and Spike2 software (CED). EEG and EMG signals were digitized 500 samples/second, amplified 1000× and bandpass filtered at 0.5-100 Hertz (Hz). After 60 minutes of habituation, each animal was briefly removed from its box and dosed via the intraperitoneal (i.p.) route in a volume of 2 mL/kg. Test conditions included saline vehicle, psilocybin (10 mg/kg) positive control, compound 2-1 at 3, 10 and 30 mg/kg and compound 2-2 at 10, 17 and 30 mg/kg. Doses were based on the molecular weight of the free bases. compound 2-1 and compound 2-2 dosing solutions were prepared in 40% (w/v) hydroxypropyl-beta-cyclodextrin. After dosing, animals were immediately put back into the recording boxes, the experimenter left the room, and recordings continued uninterrupted for 23 hours. At the end of the recording session, the transmitters were turned off and the animals were returned to their home cages. All animals received all treatment conditions in a pseudo randomized cross-over fashion with a minimum washout period of 7 days between doses.
All data was aligned to zero (the time of dosing), with epochs defined as non-overlapping 10-second time segments. […]

C57BL/6J male mice = experiment: Mouse forced swim test 24 hr after single administration; type: in vivo; conditions: 24 hr post-administration
Description: Young adult C57BL/6J male mice (8-9 weeks old at arrival; n=113) were purchased from Charles River (DE). All C57BL/6J mice were housed in groups of 4 per cage. Mice were maintained under controlled conditions (21±2° C., 50±1% humidity, 12/12 h light/dark cycles, lights on at 7 a.m.) with food and water available ad libitum.
Experimental Design: The experimental procedures were in accordance with the European Communities Council Directive (Directive 2010/63 EU into the Polish Directives (Journal of Laws of 2021, item 1331, as amended)) and approved by the Local Ethic Committee in Olsztyn (Approval No. 27/203 from 22 Mar. 2023). Animals were subjected to a single injection of either vehicle, psilocybin (5 mg/kg i.p), compound 2-1 (3, 10 or 30 mg/kg, i.p.) or compound 2-2 (3, 10 or 30 mg/kg, i.p.). 24 hrs later, each mouse was tested in the forced swim test. […]
Forced Swim Test: After 17 days of acclimatization (11-12 weeks old), all mice were randomly assigned to experimental groups (n=14-15/group). Sample size (n=14 per group) was determined based on G-power calculations using alpha 0.05, t-test and effect size calculation based on mean and SD from vehicle and positive control groups. […] Because little immobility is observed during the first 2 minutes of the FST, only immobility occurring during the last 4 minutes was scored and analyzed. […] All test sessions were recorded using a video camera placed on the side of the cylinder for subsequent behavioral analysis by scorers blinded to the treatment conditions. […]
Data Analysis: Data for each compound have been analyzed separately using the GraphPad Prism 9 statistical software. For compound 2-1, immobility time in the forced swim test was analyzed by ordinary one way ANOVA. […] Acute effect of reference substance (psilocybin 5 mg/kg, 24 hr) on immobility time in the FST was determined by unpaired t test. […]

[2] = male WKY rats, IP, initial 4 hours following dosing

## COc1ccc(OC)c(CCNCc2cc(C)cc(F)c2)c1 [Compound 2-2, 2-(2,5-dimethoxyphenyl)-N-(3-fluoro-5-methylbenzyl)ethan-1-amine]
[1]
  time with high brain relative to plasma concentrations: 6 to 8 h
Male WKY rats; 17 mg/kg i.p.
  latency to REM sleep vs vehicle: significantly increased
Male WKY rats; 10, 17 and 30 mg/kg i.p.
  amount of time spent in wake vs vehicle: significantly increased
  brain oscillations in the alpha frequency (8-12 Hz) range during waking: did not show significant effects
  brain oscillations in the high-frequency gamma (50-100 Hz) range during waking, relative to psilocybin: did not show psilocybin-like effects
Male WKY rats; 10, 17 and 30 mg/kg i.p., first 3 hours after administration
  amount of time spent in non-REM sleep vs vehicle: significantly decreased
Male WKY rats; 10, 17 and 30 mg/kg i.p., post-dose period 0-2 hours
  low frequency (delta and theta) power during non-REM sleep: significantly decreased
Male WKY rats; 10, 17 and 30 mg/kg i.p., starting in the third hour post dose
  amount of time spent in REM sleep vs vehicle: significantly decreased
Male WKY rats; 10 and 17 mg/kg i.p.
  latency to non-REM (NREM) sleep vs vehicle: significantly increased
Male WKY rats; i.p., limited statistical significance (17 mg/kg)
  high gamma power during waking: 3-hour trend for reduced high gamma power
Male WKY rats; [2]
  waking high gamma power: decreased
  waking theta and beta power: significantly increased
C57BL/6J male mice; 10 mg/kg i.p.
  immobility time in mouse FST: strong tendency to reduce immobility time
C57BL/6J male mice; 3 & 30 mg/kg i.p.
  immobility time in mouse FST: Neither compound 2-1 (3, 10 & 30 mg/kg) nor compound 2-2 (3 & 30 mg/kg) showed significant reductions

Reference: US12343319B2, “Compositions and methods for treatment of diseases and disorders” (Atai Therapeutics Inc., priority 2023, dated 2025)
